Data reported in PubChem BioAssay AID493014 (National Center for Advancing Translational Sciences (NCATS), 2011).
Screen size: about 340,000 compounds; about 170 (0.05%) were called active. The inconclusive results got no clear call from the source; some entries with a clear call stand among them for comparison. The call rests on the fitted dose curve; in most records, active means well fitted inhibition curve with a large enough effect in the signal ratio, with a control signal flat (not every such curve was filed as active); inconclusive means small, poorly fitted or top-dose-only effect, or effect the other way, or a change in a side signal; inactive means flat fitted curve, though single readings scatter; the % refers to the signal ratio. Potencies beside an inconclusive call are fits to weak or partial responses and may not hold up.

Test: qHTS Assay to Find Inhibitors of Chronic Active B-Cell Receptor Signaling;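 on activity change, negative = inhibition: plate controls were basal doxycycline-induced cells for no effect and cells given 10 µM MG132 for full effect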
Settings: ABC-DLBCL IkBa-CBG/CBR reporter, luminescence ratio (green luciferase fused to IkBa over red control in TMD8 lymphoma cells), 4 h; activity change, negative = inhibition: at 46.1 µM (top of the series)
Summary of the method: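 Cell line TMD8 (human ABC DLBCL), stably expressing tet-inducible CBG68-IkBa fusion and CBR; IMDM/0.5% FBS; cpd up to 46 uM; dox induction, 4 h, 37C/5% CO2; dual luminescence; green/red ratio; MG132 control.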
Potency means the concentration at half of the fitted maximal effect.

Structure (SMILES)	activity change, negative = inhibition	Potency
CCN(CC)C(=O)c1sc(NC(=O)c2cc(-c3ccc(C)s3)nc3ccccc23)c(C(=O)OC)c1C	inactive	
Cc1ccc(S(=O)(=O)CCC(=O)OCC(=O)c2c[nH]c3ccccc23)cc1		inconclusive: 20.6 µM [falling, partial curve, poor fit]
CC1(C)CN(c2cccc(-c3ccnc4ncnn34)c2)C1=O	inconclusive: 0.526%	
Cc1cccc(NC(=O)c2cccc(OC(=S)N3CCOCC3)c2)c1		inconclusive: 35.5 µM [falling, single point]
CCN(CC)c1ccc2cc(-c3nc4ccccc4[nH]3)c(=O)oc2c1	inactive	
COc1cccc(/C=N/NC(=O)CN2CC(c3ccccc3)CC2=O)c1O (configuration not stated)	inactive	
CC(=O)Cn1nnc(-c2ccc(C(F)(F)F)cc2)n1	inconclusive: 12.9%	
CCOc1c2ccc(C(=O)NCCc3cccs3)cc2nn1CC	inactive	
Cc1ccc(Oc2ccc(OCC(=O)NC(CC(C)C)C(=O)O)cc2)cc1 (configuration not stated)	inconclusive: -0.0064%	
COc1cc([N+](=O)[O-])ccc1NC(=O)CN1CCCC1	inconclusive: -3.95%	
Cc1ccc2cc(CN(CCN(C)C)C(=O)Nc3ccc(Cl)cc3)c(=O)[nH]c2c1		inconclusive: 11.2 µM [falling, partial curve]
O=C1CC(/C=C/c2ccco2)=Nc2ccccc2N1	inactive	
c1ccc2c(c1)NCCS2	inactive	
Cc1cccc(NC(=S)NNC(=S)NC2CCCCC2)c1C		inconclusive: 15.8 µM [falling, partial curve]
Cc1ccccc1CN1CCc2c(OCC(=O)N3CCCc4ccccc43)cccc2C1=O		inconclusive: 18.4 µM [falling, partial curve, poor fit]
CCN(CC)C(=O)CC(c1ccc(N(C)C)cc1)c1c(O)cc(OC)cc1OC (configuration not stated)	inconclusive: -13%	
O=C(COc1nsnc1N1CCOCC1)Nc1cccc(Cl)c1	inconclusive: -8.82%	
O=C(NCCCn1ccnc1)Nc1ccc(Cl)cc1Cl	inconclusive: 1.29%	
O=C(NCCc1ccccc1)c1cccc(N2C(=O)C3CC=CCC3C2=O)c1 (configuration not stated)		inconclusive: 22.4 µM [falling, single point]
CCn1ccc2c(OCC(=O)NCc3ccc(C)cc3)cccc2c1=O		inconclusive: 12.6 µM [falling, partial curve]
COc1ccc(CCNC(=O)c2cnc3n(c2=O)CCS3)cc1OC	inconclusive: 7.45%	
O=C(O)c1cccc([N+](=O)[O-])c1C(=O)Nc1ccc2ccccc2c1	inactive	
COC(=O)/C=C/c1ccccc1S(=O)(=O)N(Cc1ccccc1)Cc1ccco1	inconclusive: -20.9%	
O=C(Nc1ccc(F)cc1)Nc1ccc(Oc2ncnc3cc(Cl)ccc23)nc1	inconclusive: 6.04%	
COc1ccc(-c2cc(C(C)=O)c(C)n2CCC(=O)Nc2ccc(C(F)(F)F)cc2)cc1	inconclusive: -4.79%	
O=C(NN1C(=O)/C(=C/C=C/c2ccco2)SC1=S)c1ccncc1	inactive	

Structure (SMILES)	activity change, negative = inhibition	Potency
CC(C)(C)C(=O)/C=c1\[nH]c(=O)/c(=C\c2ccc(F)cc2)s1	inconclusive: 12.6%	
O=C(O)c1cccc(NC(=S)N/N=C/c2ccccn2)c1		inconclusive: 31.6 µM [rising, single point]
COc1cc(CN2CCN(C(O)(c3ccccc3)c3ccccc3)CC2)cc(OC)c1OC	inactive	
O/N=C/c1cc(Cl)ccc1OCc1ccccc1Cl	inconclusive: 21%	
Cc1ccc2nc(-c3cccnc3SCC(=O)N3c4ccccc4CC3C)[nH]c2c1 (configuration not stated)		inconclusive: 9.2 µM [falling, partial curve]
O=C1c2ccc(Cl)cc2S(=O)(=O)c2cccc(C(=O)N3CCC(Cc4ccccc4)CC3)c21	inactive	
CC(Sc1nc(N2CCOCC2)c2c(c1C#N)CC(C)(C)OC2)C(=O)O (configuration not stated)	inconclusive: 2.17%	
Cn1c(CNC(=O)c2ccc(Cl)cc2)nnc1SCC(=O)NC1=NCCS1	inactive	
O=C(Nc1ccc(C(=O)NCCCN2CCN(c3ccc(F)cc3)CC2)cc1)C1=CSCCO1	inactive	
COc1ccc(-c2ccc(=O)n(Cc3cccc([N+](=O)[O-])c3)n2)cc1		inconclusive: 11.2 µM [falling, partial curve, poor fit]
C=CCOc1ccc(C(=O)Nc2ccc3c(c2)n(C)c(=O)n3C)cc1	inconclusive: -4%	
O=C(N/N=C/c1c(-c2ccccc2)[nH]c2ccccc12)c1cccnc1		inconclusive: 11.2 µM [falling, partial curve]
CCN(CC)c1ccc(NC(=O)c2ccco2)cc1	inactive	
CCOC(=O)c1ccc(NC2c3ccccc3C(=O)N2c2ccc(C)cn2)cc1 (configuration not stated)	inactive	
Cn1c(NC(=O)C[n+]2cc(-c3ccc(Cl)cc3)n3c2CCC3)cc(=O)n(C)c1=O		inconclusive: 18.4 µM [falling, partial curve, poor fit]
C/C(=N\O)C1CC(CC(=O)O)C1(C)C (configuration not stated)	inconclusive: 1.35%	
CC(=O)Oc1ccccc1-c1nc(/C=C/c2ccccc2)no1		inconclusive: 35.5 µM [rising, single point]
COc1ccc2nc(NC(=O)CSC3=NCCS3)sc2c1		inconclusive: 35.5 µM [falling, single point]
CCCC(=O)Nc1ccccc1NC(C)=O	inconclusive: -4.15%	
O=C(Nc1cnc(N2CCC(N3CCCCC3)CC2)c(C(=O)O)c1)c1ccc(Br)cc1	inactive	
O=C(N/N=C/c1ccco1)c1cc(C2CC2)[nH]n1		inconclusive: 35.5 µM [falling, single point]
COc1cccc(-c2cc(C(=O)Nc3ccc4c(c3)OCCO4)c3ccccc3n2)c1	inactive	
O=C(C1CCCN(S(=O)(=O)c2ccc(Br)cc2)C1)N1CCOCC1 (configuration not stated)	inconclusive: 6.52%	
CC1=Nc2cc(C(=O)NCCCOC(C)C)ccc2Sc2ccc(C)cc21		inconclusive: 8.91 µM [falling, partial curve]
CC(Oc1cccc(F)c1)C(=O)Nc1ccc(N2CCOCC2)cc1 (configuration not stated)	inconclusive: 2.97%	
COc1ccc(OC)c(/C=N/NC(=O)CSc2nnc(C)n2-c2ccccc2)c1	inconclusive: -1.5%	

A stretch taken from the entries so far, as a working copy:
Structure (SMILES)	activity change, negative = inhibition	Potency
O=C(N/N=C/c1ccco1)c1cc(C2CC2)[nH]n1		inconclusive: 35.5 µM [falling, single point]
COc1cccc(-c2cc(C(=O)Nc3ccc4c(c3)OCCO4)c3ccccc3n2)c1	inactive	
O=C(C1CCCN(S(=O)(=O)c2ccc(Br)cc2)C1)N1CCOCC1 (configuration not stated)	inconclusive: 6.52%	
